Test results as given in paper PMC4608839.
Results are given in words; binding and its absence hold for the method and conditions named. Binding calls can cover weak binding; strength is not graded here. Sequences can lack the tags named with a protein.

Molecular target: T1, GST-Pelle (Drosophila melanogaster) (UniProt Q05652)
T1 sequence: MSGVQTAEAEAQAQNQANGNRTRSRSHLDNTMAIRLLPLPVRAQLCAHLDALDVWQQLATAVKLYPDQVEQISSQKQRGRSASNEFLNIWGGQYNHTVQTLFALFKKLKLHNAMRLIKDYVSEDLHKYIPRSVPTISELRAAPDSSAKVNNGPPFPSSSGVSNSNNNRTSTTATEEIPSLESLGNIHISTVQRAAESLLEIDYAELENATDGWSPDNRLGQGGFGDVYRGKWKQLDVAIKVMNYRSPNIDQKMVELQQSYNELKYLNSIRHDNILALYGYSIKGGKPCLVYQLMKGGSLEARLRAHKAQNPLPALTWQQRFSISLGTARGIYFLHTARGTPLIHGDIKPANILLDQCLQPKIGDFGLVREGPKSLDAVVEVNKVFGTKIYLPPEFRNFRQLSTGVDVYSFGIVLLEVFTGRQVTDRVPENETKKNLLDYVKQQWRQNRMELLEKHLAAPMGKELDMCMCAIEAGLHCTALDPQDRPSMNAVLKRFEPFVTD
Assay: pull-down; 10 μg GST-fusion protein with 10 μg purified 6xHis-dFoxo and 50 μl glutathione-Sepharose beads, 4°C for 5 hours; washed 5 times with lysis buffer; detection with anti-His antibody; both purified

binding: binds
Substance: His-dFoxO (full-length, 1-622aa) (Drosophila melanogaster)
